Measured values as given in publication PMC4372598.
Results are given in words; binding and its absence hold for the method and conditions named. For part of these data: Binding seen in cells or lysates may run through a third protein. Some results given as binding are weak or reduced against the parent protein; the word gives no strength. For part of these data: Sequences can lack the tags named with a protein.

T1: FLAG-tagged Smyd1 (UniProt P97443)
T1 sequence: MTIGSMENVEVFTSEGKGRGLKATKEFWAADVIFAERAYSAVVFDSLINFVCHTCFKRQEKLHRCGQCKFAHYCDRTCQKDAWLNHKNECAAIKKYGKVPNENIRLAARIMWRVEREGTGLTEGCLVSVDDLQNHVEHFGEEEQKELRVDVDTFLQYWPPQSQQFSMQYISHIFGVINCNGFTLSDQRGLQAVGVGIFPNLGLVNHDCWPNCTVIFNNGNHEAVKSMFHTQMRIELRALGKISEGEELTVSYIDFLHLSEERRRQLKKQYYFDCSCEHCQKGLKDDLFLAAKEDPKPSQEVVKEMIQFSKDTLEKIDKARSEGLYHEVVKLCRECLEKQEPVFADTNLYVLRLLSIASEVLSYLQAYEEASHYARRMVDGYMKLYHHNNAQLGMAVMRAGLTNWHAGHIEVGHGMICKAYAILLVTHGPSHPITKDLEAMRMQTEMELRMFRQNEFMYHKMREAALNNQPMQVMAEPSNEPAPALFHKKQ

T2: Smyd1 (yeast two-hybrid) (UniProt P97443)
T2 sequence: T1 sequence

B1: MYC-tagged TRB3 full-length (protein, UniProt Q8K4K2 1-354)
chain: MRATPLAASADVSCRKKPLEFDDNIDAKCPVLKRVRDEPEPGPLPSLLPPSPPPASDLSPAVAPATRLGPYILLEREQGSCSYRALHCPTGTEYTCKVYPASEAQAVLAPYARLPTHQHVARPTEVLLGSRLLYIFFTKTHGDLHSLVRSRRGIPESEAAGLFRQMASAVAHCHKHGLVLRDLKLRRFVFSNCERTKLVLENLEDACVMTGSDDSLWDKHACPAYVGPEILSSRPSYSGKAADVWSLGVALFTMLAGRYPFHDSEPVLLFGKIRRGTFALPEGLSAPARCLIRCLLRKEPSERLVALGILLHPWLREDHGRVSPPQSDRREMDQVVPDGPQLEEAEEGEVGLYG
B2: MYC-tagged TRB3 (1-80) (domain or fragment, UniProt Q8K4K2 1-80)
chain: MRATPLAASADVSCRKKPLEFDDNIDAKCPVLKRVRDEPEPGPLPSLLPPSPPPASDLSPAVAPATRLGPYILLEREQGS
B3: TRB3 (yeast two-hybrid) (protein, UniProt Q8K4K2 1-354)
chain: B1 chain

How the values were obtained:
FLAG-tagged Smyd1 = molecular target: T1, FLAG-tagged Smyd1; experiment: co-IP; Cos7 cells co-transfected with FLAG-Smyd1 and MYC-Trb3 constructs; lysis in 10 mM Tris pH 7.4, 1 mM EDTA, 0.5% Triton X100 in PBS; immunoprecipitated with monoclonal anti-FLAG M2, blotted with polyclonal anti-MYC A14
Smyd1 (yeast two-hybrid) = molecular target: T2, Smyd1 (yeast two-hybrid); experiment: two-hybrid; yeast two-hybrid assays, data not shown

Row | Binder | binding (FLAG-tagged Smyd1) | binding (Smyd1 (yeast two-hybrid))
1 | B1 | binds | 
2 | B2 | binds | 
3 | B3 |  | binds
